For one assay, the target named is Myc-BioID-GGA2 (human) (UniProt Q9UJY4). Put plainly: proximity labelling.
For assay [1], the target named is T1, Myc-BioID-GGA2 (human), Q9UJY4.
T1 chain: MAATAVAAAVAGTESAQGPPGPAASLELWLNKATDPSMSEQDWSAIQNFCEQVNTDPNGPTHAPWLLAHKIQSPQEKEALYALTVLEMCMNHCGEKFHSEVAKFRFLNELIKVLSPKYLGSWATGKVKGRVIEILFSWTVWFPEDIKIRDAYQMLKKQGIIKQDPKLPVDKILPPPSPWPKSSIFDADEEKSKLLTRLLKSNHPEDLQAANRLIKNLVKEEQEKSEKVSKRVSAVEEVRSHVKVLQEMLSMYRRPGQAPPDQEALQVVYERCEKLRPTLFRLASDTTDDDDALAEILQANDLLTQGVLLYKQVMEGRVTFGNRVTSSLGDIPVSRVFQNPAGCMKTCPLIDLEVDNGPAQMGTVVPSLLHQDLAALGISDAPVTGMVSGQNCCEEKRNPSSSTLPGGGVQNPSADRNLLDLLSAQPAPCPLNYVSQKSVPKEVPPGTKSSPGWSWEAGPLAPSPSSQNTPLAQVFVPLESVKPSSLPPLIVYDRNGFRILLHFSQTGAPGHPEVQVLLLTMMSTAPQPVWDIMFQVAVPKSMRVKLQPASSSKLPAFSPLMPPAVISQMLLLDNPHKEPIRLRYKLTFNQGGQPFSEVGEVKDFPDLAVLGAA
Put plainly: proximity labelling. To be noted: remark: other sources report otherwise.

Protein sequences, listed by entry. Tags and fused reporters are not part of them. Residues count along the entry.
UniProt Q00610: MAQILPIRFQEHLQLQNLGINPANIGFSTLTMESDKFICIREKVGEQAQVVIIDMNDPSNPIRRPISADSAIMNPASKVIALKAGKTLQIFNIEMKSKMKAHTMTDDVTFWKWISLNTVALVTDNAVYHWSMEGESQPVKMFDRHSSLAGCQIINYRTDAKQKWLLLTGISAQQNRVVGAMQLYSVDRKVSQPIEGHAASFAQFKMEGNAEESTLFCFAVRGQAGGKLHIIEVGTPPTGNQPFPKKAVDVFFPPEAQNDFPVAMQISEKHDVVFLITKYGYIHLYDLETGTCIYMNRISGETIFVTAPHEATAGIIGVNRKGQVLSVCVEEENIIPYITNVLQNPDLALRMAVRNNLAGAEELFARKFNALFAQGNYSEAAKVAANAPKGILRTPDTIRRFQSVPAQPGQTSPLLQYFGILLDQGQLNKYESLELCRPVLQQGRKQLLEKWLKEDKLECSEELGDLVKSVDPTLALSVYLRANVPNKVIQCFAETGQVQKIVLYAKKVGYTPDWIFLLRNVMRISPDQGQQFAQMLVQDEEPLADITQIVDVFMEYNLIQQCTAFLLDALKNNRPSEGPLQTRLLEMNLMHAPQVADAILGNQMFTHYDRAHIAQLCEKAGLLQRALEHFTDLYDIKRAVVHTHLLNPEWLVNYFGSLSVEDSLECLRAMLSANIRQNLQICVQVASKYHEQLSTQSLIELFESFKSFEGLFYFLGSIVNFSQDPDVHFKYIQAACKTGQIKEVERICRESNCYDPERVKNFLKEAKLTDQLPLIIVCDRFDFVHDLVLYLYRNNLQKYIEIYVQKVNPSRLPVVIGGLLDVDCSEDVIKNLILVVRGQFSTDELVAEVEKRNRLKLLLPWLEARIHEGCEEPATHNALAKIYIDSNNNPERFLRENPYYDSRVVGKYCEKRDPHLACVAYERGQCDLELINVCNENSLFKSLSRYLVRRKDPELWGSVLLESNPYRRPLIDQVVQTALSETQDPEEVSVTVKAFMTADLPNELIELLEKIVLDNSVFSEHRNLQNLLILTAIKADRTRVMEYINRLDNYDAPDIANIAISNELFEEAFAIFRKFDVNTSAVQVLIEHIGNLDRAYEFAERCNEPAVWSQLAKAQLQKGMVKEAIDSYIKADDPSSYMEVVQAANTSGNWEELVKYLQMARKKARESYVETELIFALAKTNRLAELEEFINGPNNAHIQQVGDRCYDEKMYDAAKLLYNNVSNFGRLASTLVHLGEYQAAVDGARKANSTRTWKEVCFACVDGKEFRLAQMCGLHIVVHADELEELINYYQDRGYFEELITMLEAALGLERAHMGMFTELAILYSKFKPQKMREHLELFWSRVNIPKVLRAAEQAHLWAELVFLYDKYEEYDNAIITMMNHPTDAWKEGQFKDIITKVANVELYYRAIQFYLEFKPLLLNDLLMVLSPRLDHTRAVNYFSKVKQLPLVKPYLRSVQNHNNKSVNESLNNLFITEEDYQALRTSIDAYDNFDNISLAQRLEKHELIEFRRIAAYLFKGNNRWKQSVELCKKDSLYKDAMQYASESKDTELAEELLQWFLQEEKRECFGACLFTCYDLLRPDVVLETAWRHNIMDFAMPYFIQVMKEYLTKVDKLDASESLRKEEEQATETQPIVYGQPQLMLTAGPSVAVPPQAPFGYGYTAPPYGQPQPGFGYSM
UniProt P11717, residues 41-2491: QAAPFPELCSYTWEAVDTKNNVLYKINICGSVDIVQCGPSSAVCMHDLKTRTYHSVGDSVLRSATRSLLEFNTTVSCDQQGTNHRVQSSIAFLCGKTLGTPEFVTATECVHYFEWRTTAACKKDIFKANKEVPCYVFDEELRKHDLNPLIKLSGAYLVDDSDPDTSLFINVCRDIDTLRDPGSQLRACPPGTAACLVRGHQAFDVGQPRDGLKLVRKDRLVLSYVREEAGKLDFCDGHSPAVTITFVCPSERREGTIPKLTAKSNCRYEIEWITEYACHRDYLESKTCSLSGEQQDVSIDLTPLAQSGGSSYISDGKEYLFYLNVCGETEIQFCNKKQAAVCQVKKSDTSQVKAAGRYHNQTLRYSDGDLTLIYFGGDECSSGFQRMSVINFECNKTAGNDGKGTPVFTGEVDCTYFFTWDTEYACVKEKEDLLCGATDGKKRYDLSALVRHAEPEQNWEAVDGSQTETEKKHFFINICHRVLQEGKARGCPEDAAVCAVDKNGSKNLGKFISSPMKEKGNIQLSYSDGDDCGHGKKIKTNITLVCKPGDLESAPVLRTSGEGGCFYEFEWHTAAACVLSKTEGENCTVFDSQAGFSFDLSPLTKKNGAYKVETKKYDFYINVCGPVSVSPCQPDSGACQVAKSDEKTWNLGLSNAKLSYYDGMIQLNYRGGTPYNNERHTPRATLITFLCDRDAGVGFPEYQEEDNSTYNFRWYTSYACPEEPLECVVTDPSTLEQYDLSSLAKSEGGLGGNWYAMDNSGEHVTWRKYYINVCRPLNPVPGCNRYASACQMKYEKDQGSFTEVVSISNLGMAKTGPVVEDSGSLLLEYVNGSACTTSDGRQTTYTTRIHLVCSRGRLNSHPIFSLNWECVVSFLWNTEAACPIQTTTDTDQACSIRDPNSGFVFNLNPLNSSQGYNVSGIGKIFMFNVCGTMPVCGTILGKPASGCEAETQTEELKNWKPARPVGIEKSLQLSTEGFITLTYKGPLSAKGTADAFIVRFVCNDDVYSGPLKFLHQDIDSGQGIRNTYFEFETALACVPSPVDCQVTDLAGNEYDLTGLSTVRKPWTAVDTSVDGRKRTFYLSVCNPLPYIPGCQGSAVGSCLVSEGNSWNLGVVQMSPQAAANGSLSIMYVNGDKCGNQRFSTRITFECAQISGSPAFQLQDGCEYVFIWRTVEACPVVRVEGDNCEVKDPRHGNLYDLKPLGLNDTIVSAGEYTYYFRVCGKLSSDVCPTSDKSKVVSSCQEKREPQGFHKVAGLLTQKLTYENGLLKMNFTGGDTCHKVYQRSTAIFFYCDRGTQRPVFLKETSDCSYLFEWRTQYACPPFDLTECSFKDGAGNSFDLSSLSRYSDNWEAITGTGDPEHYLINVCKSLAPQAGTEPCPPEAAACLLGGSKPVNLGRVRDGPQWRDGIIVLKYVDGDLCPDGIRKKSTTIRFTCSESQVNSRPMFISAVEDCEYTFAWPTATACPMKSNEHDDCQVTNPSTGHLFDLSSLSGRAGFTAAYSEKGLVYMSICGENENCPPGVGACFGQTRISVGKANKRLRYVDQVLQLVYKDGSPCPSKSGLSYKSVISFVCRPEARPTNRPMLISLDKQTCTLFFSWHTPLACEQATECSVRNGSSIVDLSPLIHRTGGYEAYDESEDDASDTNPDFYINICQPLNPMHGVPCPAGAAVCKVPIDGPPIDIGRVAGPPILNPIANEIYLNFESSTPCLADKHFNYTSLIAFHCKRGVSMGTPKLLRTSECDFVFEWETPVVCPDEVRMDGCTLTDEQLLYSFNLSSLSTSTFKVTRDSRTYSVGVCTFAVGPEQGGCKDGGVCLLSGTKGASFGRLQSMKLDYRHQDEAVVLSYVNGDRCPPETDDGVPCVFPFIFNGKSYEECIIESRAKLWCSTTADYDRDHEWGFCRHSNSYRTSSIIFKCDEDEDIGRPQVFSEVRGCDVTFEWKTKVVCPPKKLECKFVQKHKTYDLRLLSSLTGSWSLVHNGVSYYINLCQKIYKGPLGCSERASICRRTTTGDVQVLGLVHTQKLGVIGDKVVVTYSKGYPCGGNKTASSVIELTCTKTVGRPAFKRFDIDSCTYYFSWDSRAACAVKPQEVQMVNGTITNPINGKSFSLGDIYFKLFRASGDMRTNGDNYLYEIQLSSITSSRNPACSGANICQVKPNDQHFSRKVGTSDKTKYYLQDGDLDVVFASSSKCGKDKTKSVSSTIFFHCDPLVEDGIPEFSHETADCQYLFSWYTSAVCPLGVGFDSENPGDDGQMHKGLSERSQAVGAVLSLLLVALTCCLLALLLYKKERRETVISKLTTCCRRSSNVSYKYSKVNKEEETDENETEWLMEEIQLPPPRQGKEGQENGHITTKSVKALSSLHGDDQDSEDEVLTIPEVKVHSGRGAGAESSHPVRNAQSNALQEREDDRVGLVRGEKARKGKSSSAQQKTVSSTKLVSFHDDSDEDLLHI
UniProt P62330: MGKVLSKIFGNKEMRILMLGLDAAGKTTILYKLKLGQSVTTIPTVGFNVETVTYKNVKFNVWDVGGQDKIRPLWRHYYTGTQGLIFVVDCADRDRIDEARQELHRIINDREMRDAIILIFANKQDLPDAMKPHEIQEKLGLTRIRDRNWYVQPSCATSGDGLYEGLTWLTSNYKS
UniProt P61026: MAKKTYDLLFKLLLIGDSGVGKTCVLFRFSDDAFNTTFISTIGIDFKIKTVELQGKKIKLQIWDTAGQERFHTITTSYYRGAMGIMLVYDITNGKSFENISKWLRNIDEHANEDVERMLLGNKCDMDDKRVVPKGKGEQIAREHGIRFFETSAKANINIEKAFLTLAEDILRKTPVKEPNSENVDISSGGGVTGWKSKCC

No constants are given. Whether binding was seen depends on the method and setting. Binding seen in cells or lysates may run through a third protein. A yes stands for co-enrichment or nearness to the bait. Other partners may have been found. For some of these results: Sequences can lack the tags named with a protein.

In the case of “clathrin (endogenous) (from UniProt Q00610 1-1675)”, the binding entry in the assay with Myc-BioID-GGA2 (human) was “binds”.
Consider “IGFR2 (endogenous) (from UniProt P11717 41-2491) (receptor)”, for which, in the assay with Myc-BioID-GGA2 (human), the binding entry is “binds”.
The same measure, in the same setting: in the case of “ARF6 (endogenous) (from UniProt P62330 1-175)” it was “binds”; in that of “RAB10 (endogenous) (from UniProt P61026 1-200)”, “binds”.

B1: GGA3 (endogenous), Q9NZ52 1-723 (protein)
chain: MAEAEGESLESWLNKATNPSNRQEDWEYIIGFCDQINKELEGPQIAVRLLAHKIQSPQEWEALQALTVLEACMKNCGRRFHNEVGKFRFLNELIKVVSPKYLGDRVSEKVKTKVIELLYSWTMALPEEAKIKDAYHMLKRQGIVQSDPPIPVDRTLIPSPPPRPKNPVFDDEEKSKLLAKLLKSKNPDDLQEANKLIKSMVKEDEARIQKVTKRLHTLEEVNNNVRLLSEMLLHYSQEDSSDGDRELMKELFDQCENKRRTLFKLASETEDNDNSLGDILQASDNLSRVINSYKTIIEGQVINGEVATLTLPDSEGNSQCSNQGTLIDLAELDTTNSLSSVLAPAPTPPSSGIPILPPPPQASGPPRSRSSSQAEATLGPSSTSNALSWLDEELLCLGLADPAPNVPPKESAGNSQWHLLQREQSDLDFFSPRPGTAACGASDAPLLQPSAPSSSSSQAPLPPPFPAPVVPASVPAPSAGSSLFSTGVAPALAPKVEPAVPGHHGLALGNSALHHLDALDQLLEEAKVTSGLVKPTTSPLIPTTTPARPLLPFSTGPGSPLFQPLSFQSQGSPPKGPELSLASIHVPLESIKPSSALPVTAYDKNGFRILFHFAKECPPGRPDVLVVVVSMLNTAPLPVKSIVLQAAVPKSMKVKLQPPSGTELSPFSPIQPPAAITQVMLLANPLKEKVRLRYKLTFALGEQLSTEVGEVDQFPPVEQWGNL
Take B1: the binding result in assay [1] is reported as “binds”.

B2: RAB13 (endogenous) (protein, UniProt P51153 1-203)
chain: MAKAYDHLFKLLLIGDSGVGKTCLIIRFAEDNFNNTYISTIGIDFKIRTVDIEGKKIKLQVWDTAGQERFKTITTAYYRGAMGIILVYDITDEKSFENIQNWMKSIKENASAGVERLLLGNKCDMEAKRKVQKEQADKLAREHGIRFFETSAKSSMNVDEAFSSLARDILLKSGGRRSGNGNKPPSTDLKTCDKKNTNKCSLG
As to B2, the binding entry in the assay with Myc-BioID-GGA2 (human) is reported as “binds”.

B3: GGA1 (endogenous), Q9UJY5 1-639 (protein)
chain: MEPAMEPETLEARINRATNPLNKELDWASINGFCEQLNEDFEGPPLATRLLAHKIQSPQEWEAIQALTVLETCMKSCGKRFHDEVGKFRFLNELIKVVSPKYLGSRTSEKVKNKILELLYSWTVGLPEEVKIAEAYQMLKKQGIVKSDPKLPDDTTFPLPPPRPKNVIFEDEEKSKMLARLLKSSHPEDLRAANKLIKEMVQEDQKRMEKISKRVNAIEEVNNNVKLLTEMVMSHSQGGAAAGSSEDLMKELYQRCERMRPTLFRLASDTEDNDEALAEILQANDNLTQVINLYKQLVRGEEVNGDATAGSIPGSTSALLDLSGLDLPPAGTTYPAMPTRPGEQASPEQPSASVSLLDDELMSLGLSDPTPPSGPSLDGTGWNSFQSSDATEPPAPALAQAPSMESRPPAQTSLPASSGLDDLDLLGKTLLQQSLPPESQQVRWEKQQPTPRLTLRDLQNKSSSCSSPSSSATSLLHTVSPEPPRPPQQPVPTELSLASITVPLESIKPSNILPVTVYDQHGFRILFHFARDPLPGRSDVLVVVVSMLSTAPQPIRNIVFQSAVPKVMKVKLQPPSGTELPAFNPIVHPSAITQVLLLANPQKEKVRLRYKLTFTMGDQTYNEMGDVDQFPPPETWGSL
On to B3, for which, in assay [1], the binding entry was “binds”.

The values above are taken from article doi:10.1101/353086.
